Results: patent publication US20040234962A1, “Multicoated or multilayer entrapment matrix for protein biosensor” (priority 2003, published 2004)

Test: Ligand masking: IANBD dye labeling of GGBP mutants with and without glucose
[1] = Table 1, IANBD labeling without glucose
[2] = Table 1, final concentration glucose 107 mM
[3] = Table 1, final concentration glucose 99 mM

Substance | Dye: Protein Ratio, - glucose [1] | Dye: Protein Ratio, + glucose [2] | Dye: Protein Ratio, + glucose [3] | other results
A213C/L238C: GGBP double mutant: cysteine at position 213 and cysteine at position 238 | 1.8 | 1.2 | – | –
A213C: GGBP mutant, cysteine substituted for alanine at position 213 | 1.3 | – | 0.4 | –
E149C/A213R/L238S: GGBP triple mutant: cysteine at 149, arginine at 213, serine at 238 | 1 | 1 | – | –
E149C/A213C/L238C: GGBP triple mutant: cysteines at positions 149, 213 and 238 | – | – | – | Dye: Protein Ratio, + glucose (Table 2, final concentration glucose 87 mM): 2; Dye: Protein Ratio, - glucose (Table 2, labeling without glucose): 2.8
L238C: GGBP mutant, cysteine substituted for leucine at position 238 | 0.5 | – | 0.2 | –
E149C: GGBP mutant, cysteine substituted for glutamic acid at position 149 | 0.3 | – | – | Dye: Protein Ratio, + glucose (Table 1, final concentration glucose 16 mM): 0.3
